Measured values as given in patent EP2009026A1 (ThromboGenics N.V., dated 2008).
Results are given in words; binding and its absence hold for the method and conditions named. Some entries that bind do so weakly or less than the wild type. Where a sequence is shown, tags or fusion partners need not be part of it.

Target: T1, GST fusion protein of VPAC1 extracellular loop 3 (human)
T1 sequence: PDNFKPEVKMLFE
Assay: western blotting of GST-loop fusion proteins

B1: murine monoclonal anti-VPAC1 antibody 23A11 (antibody, V domains shown)
VH: EVQLQESGPSLVKPSQTLSLTCSVTGDSITSGYWNWIRKFPGNKLEYMGYIRYSGSTYYSPALKSRFSITRDTSKNQYYLQLNSVTTEDTATYYCSNWAYWGQGTLVTVSA
VL: DIVITQDELSNPVTSGESVSISCRSSKSLLYKDGKTYLNWFLQRPGQSPQLLIYLMSTRASGVSDRFSGSGSGTDFTLEISRVKAEDVGVYYCQQLVEYPLTFGAGTKLELK
notes: Murine hybridoma antibody (BALB/c mice); also called murine 23A11; anti-VPAC1 receptor antibody 23A11
  binding: binds
